The comparison behind a weaker result is the experiment's own reference, which may not be listed here.

Chains of the proteins cited; added tags and fusions are not shown. Residues count along the entry.
UniProt P05067, 672-691: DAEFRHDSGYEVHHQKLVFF

One data set concerns the target Amyloid beta 1-20 (UniProt P05067). The data set can be described thus: fluorescence recovery (FAM/BHQ1 dequenching). To be noted: signal significantly lower than Abeta 1-42, 2 h, TBS: 1 mM Tris-HCl, 100 mM NaCl, 4 mM MgCl2, 5 mM KCl, pH 7.4, 37 C, aptamer refolded from 95 C, 2 uL of 10 uM aptamer, commercial protein, residues 672-691, folded or branched DNA.
The target of the next data set is Amyloid beta 1-40 (UniProt P05067). The data set can be described thus: fluorescence recovery (FAM/BHQ1 dequenching). To be noted: signal significantly lower than Abeta 1-42, 2 h, TBS: 1 mM Tris-HCl, 100 mM NaCl, 4 mM MgCl2, 5 mM KCl, pH 7.4, 37 C, aptamer refolded from 95 C, 2 uL of 10 uM aptamer, commercial protein, residues 672-711, folded or branched DNA.

Consider “TGGGGGGCGGACGATAGGGGCCCCCCGGTAGGATGGACG [Abeta aptamer (AAP)]”, for which the binding result with Amyloid beta 1-20 and with Amyloid beta 1-40 was “binds more weakly” in each case.

Source of the values: PMC10288270.
